Reference: PubChem BioAssay AID602196 (INSERM, 2012)
Aim: 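Genes whose knock-down alters cisplatin killing of lung cancer cells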. Cell system: human A549 lung cancer cells. Reagent: siRNA pair against human genes. Duration: 48 h transfection before cisplatin; time from cisplatin to read-out not stated. Treatment: cisplatin at a dose killing half of control-siRNA cells; exact dose and duration not given. Read-out: 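Cisplatin cell death as a shift from the 50% death seen with control siRNA; siRNAs toxic or growth-blocking alone scored 0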. Reading the numbers: two-siRNA summed score (-2 to +2): higher = both siRNAs protect from cisplatin killing; -2 means both sensitise; mean protection from cisplatin (shift in death) and protection from cisplatin (shift in death), siRNA C and protection from cisplatin (shift in death), siRNA D: higher = protection from cisplatin killing. Rule for the call: 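Each siRNA scores 0 if harmful alone by LDH or WST-1, otherwise +1 if it reduces and -1 if it increases cisplatin killing; a gene is active when both siRNAs agree (sum +2 or -2)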. Calls: active = both siRNAs shift cisplatin killing the same way; inactive = no consistent shift, or siRNA harmful alone.
Shown is one part, drawn at random, of about 23,000 reagents. 455 of all reagents (2%) were called active. 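Active includes both protection and sensitisation; some change values fall well beyond the stated -50 to +50 range.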 Unmarked entries are inactive. Reagents against one gene are numbered here. The record does not give: the amount of reagent.

| gene | reagent no. | two-siRNA summed score (-2 to +2) | mean protection from cisplatin (shift in death) (%) | protection from cisplatin (shift in death), siRNA C (%) | protection from cisplatin (shift in death), siRNA D (%) |
| --- | --- | --- | --- | --- | --- |
| LRRC14 | 1 | 0 | -5.4 | -8.4 | -2.5 |
| FAM241B | 1 | 0 | -1.5 | -11.4 | 8.5 |
| GZF1 | 1 | 0 | 1.3 | 1.5 | 1.1 |
| PNLIPRP2 | 1 | 0 | -9.4 | -29.1 | 10.3 |
| KIF27P2 | 1 | 0 | 11.8 | 15.5 | 8.1 |
| FLVCR2 | 1 | 0 | 1.2 | 1.3 | 1.2 |
| FAN1 | 1 | 1 | 10.5 | 11.4 | 9.5 |
| LOC389950 | 1 | 0 | 3.5 | -0.7 | 7.8 |
| PSMB3 | 1 | 0 | 20.9 | 24.1 | 17.7 |
| PROCR | 1 | 0 | -7.2 | -0.8 | -13.5 |
| LOC94431 | 1 | 0 | 5.9 | 11.6 | 0.2 |
| LOC284288 | 1 | 1 | 16.2 | 6 | 26.4 |
| SLC34A2 | 1 | 0 | 5.6 | 4.5 | 6.6 |
| PDSS1 | 1 | 0 | -2.3 | -2.4 | -2.1 |
| PDCD6 | 1 | 0 | -4.6 | -7.1 | -2.1 |
| SERP2 | 1 | 0 | 10.4 | 11.9 | 8.9 |
| ZNF490 | 1 | 0 | 5.8 | 18.2 | -6.6 |
| HS6ST1P1 | 1 | 1 | 7.7 | 19.7 | -4.3 |
| LOC442470 | 1 | 0 | 11.7 | 15.6 | 7.9 |
| HADH | 1 | 1 | 11.3 | 11.5 | 11.1 |
| TCAP | 1 | 0 | -13.6 | -14 | -13.2 |
| DNTTIP2 | 1 | 0 | 2.1 | -4.6 | 8.8 |
| CDK17 | 1 | 1 | 7.5 | 18.9 | -3.8 |
| OR6W1P | 1 | 1 | 16.5 | -3.2 | 36.3 |
| WDR75 | 1 | 0 | 9.8 | 10.2 | 9.5 |
| AKAP8 | 1 | 1 | 21.9 | 35.8 | 8 |
| STAP2 | 1 | 0 | 1.6 | 4.7 | -1.4 |
| STAP2 | 2 | 0 | 3.5 | 17.5 | -10.5 |
| COLCA1 | 1 | 0 | -2.4 | 2.3 | -7 |
| HEATR3 | 1 | 0 | 8.8 | 9 | 8.7 |
| LOC389636 | 1 | 0 | -3.5 | -10.8 | 3.7 |
| TGIF2LY | 1 | 0 | 8.6 | 3.2 | 14.1 |
| NPVF | 1 | -1 | -16.9 | -6.8 | -27.1 |
| P4HA2 | 1 | -1 | -20 | -37.8 | -2.2 |
| CRYM | 1 | 0 | -17.1 | -14.3 | -19.9 |
| CRYM | 2 | 0 | -3.1 | -3.6 | -2.7 |
| TPP2 | 1 | 0 | 3.4 | 7.8 | -0.9 |
| NOS2 | 1 | 1 | 4.2 | 19.7 | -11.3 |
| LOC441022 | 1 | 1 | 8.5 | 14 | 3 |
| RHOBTB3 | 1 | 0 | 11.4 | 11.3 | 11.6 |
| MTDH | 1 | 0 | 2.4 | -0.2 | 5 |
| FUT4 | 1 | -1 | -6.2 | -12.7 | 0.3 |
| PSENEN | 1 | 0 | -20.8 | -10.8 | -30.9 |
| LCN6 | 1 | 0 | 4 | 10.4 | -2.5 |
| SLC1A1 | 1 | 0 | 0.5 | 8.7 | -7.6 |
| LINC02893 | 1 | 0 | 8.3 | 11.9 | 4.7 |
| LOC441073 | 1 | 1 | 29.2 | 25.4 | 33 |
| OLA1 | 1 | 0 | 1 | -5.4 | 7.5 |
| CIAPIN1 | 1 | 0 | 7.1 | 5.6 | 8.6 |
| TUT7 | 1 | 0 | 19.5 | 0.8 | 38.1 |
| MPL | 1 | -1 | -9.6 | -16.8 | -2.3 |
| PIAS4 | 1 | 0 | 2 | 5.3 | -1.3 |
| TMEM64 | 1 | 0 | 5.6 | 8.4 | 2.8 |
| KIF16B | 1 | 0 | -4.8 | -11.6 | 2 |
| KIF16B | 2 | 0 | 5.9 | -5.4 | 17.3 |
| LINS1 | 1 | 0 | 6.1 | 11.4 | 0.8 |
| KCNG4 | 1 | 1 | 24.5 | 7.6 | 41.4 |
| LOC440074 | 1 | 0 | -2 | -4.5 | 0.5 |
| TAFA5-AS1 | 1 | 0 | -2.6 | 9.6 | -14.9 |
| MACO1 | 1 | 0 | 6.2 | 6.8 | 5.7 |
| CCDC142 | 1 | 0 | -12.1 | -9.2 | -15 |
| ZNF470 | 1 | 0 | 5.9 | 5.6 | 6.2 |
| ACKR2 | 1 | 0 | 4.7 | 0.2 | 9.2 |
| LOC388701 | 1 | 0 | -10.8 | -33.4 | 11.7 |
| FGG | 1 | 0 | 19.5 | 11.4 | 27.5 |
| LOC391054 | 1 | 0 | 5.8 | -5.4 | 17.1 |
| OSBPL7 | 1 | -1 | 0.3 | -11.1 | 11.6 |
| LOC441829 | 1 | 0 | -4.1 | -3.4 | -4.7 |
| ENOPH1 | 1 | 0 | 16.5 | 2.3 | 30.8 |
| LOC389072 | 1 | 0 | 1.1 | 9 | -6.8 |
| SHROOM2 | 1 | -1 | -21.9 | -8.8 | -35.1 |
| FAM106B | 1 | 0 | 7.8 | 9.5 | 6 |
| MIDEAS | 1 | 0 | 1.2 | 0.2 | 2.1 |
